# The other results are listed elsewhere or left out. Further columns of the screen follow, without active or inactive calls. Compounds called inactive in the main read-out are mostly missing here. Potencies come from curve fits of mixed quality, noted in brackets.
# Experiment: qHTS Assay for Lipid Storage Modulators in Drosophila S3 Cells;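 as to cell number change: cells counted by Cell Tracker Red CMTPX staining in the red channel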
# Settings: BODIPY lipid droplet fluorescence, 18-24 h; for cell number change: measured here: cell count max response, cells fed with added oleic acid
# In short: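 Drosophila S3 cells loaded with oleic acid (400 uM, as added) and compounds at several concentrations; lipid droplets imaged by 488-nm laser-scanning cytometry, 500–530 nm intensity and object ratio to cell channel. Percent activity normalized to 20 uM Triacsin C.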
# [1] = measured here: lipid fluorescence (Fed channel) AC50, cells fed with added oleic acid
# [2] = measured here: cell number channel AC50, cells fed with added oleic acid
SMILES,cell number change,AC50 [1],AC50 [2]
CCOC(=O)/C(C#N)=N/Nc1ccc(S(=O)(=O)N2CCc3ccccc32)cc1,10%,"29.1 µM [falling, partial curve]",–
CC(Sc1nnc(-c2cccnc2)n1-c1ccccc1)C(=O)NCc1ccc2c(c1)OCO2 (centres undefined),3.45%,"2.31 µM [rising, partial curve, poor fit]",–
CC(=O)Nc1ccc(C(=O)OCC(=O)N(C)C2CCCCC2)cc1,-9.29%,"4.61 µM [falling, partial curve]","0.184 µM [falling, full curve, poor fit]"
CC(NCC(=O)Nc1cc(S(=O)(=O)N2CCCCCC2)ccc1Cl)c1ccccc1 (centres undefined),133%,"23.1 µM [rising, partial curve]","10.3 µM [rising, partial curve]"
O=C(Nc1cccc(-c2csc(Nc3ccc(Cl)cc3)n2)c1)c1cc([N+](=O)[O-])cc(C(F)(F)F)c1,-40.3%,"23.1 µM [falling, single point]","20.6 µM [falling, single point]"
CC(C)(C)C(=O)Nc1ccc(-c2cn3cccnc3n2)cc1,-5.56%,–,–
CC1CCN(c2c(NCC3CCC(C(=O)NCCc4ccccc4)CC3)c(=O)c2=O)CC1 (centres undefined),26.9%,"9.2 µM [rising, partial curve]",–
CN(C)c1cccc2c1C(=O)c1ccccc1C2=O,9.64%,"10.3 µM [falling, partial curve, poor fit]","5.8 µM [rising, single point]"
COc1ccc(Nc2nc3nonc3nc2N2CCCCC2)cc1,-0.64%,"6.51 µM [rising, partial curve, poor fit]",–
O=C(CSc1ccccc1F)OCC(=O)N1CCN(C(=O)c2ccco2)CC1,-30.5%,–,"29.1 µM [falling, single point]"
Cc1ccc2c(C)c(C(=O)N3CCN(c4cnccn4)CC3)oc2c1C,32.6%,"0.398 µM [rising, full curve, poor fit]","2.51 µM [rising, full curve, poor fit]"
CN(C)c1nc(SCc2ccc(Cl)cc2)nc2c1CCCC2,–,"6.51 µM [rising, single point]","1.64 µM [rising, partial curve]"
CCOC(=O)c1sc(NC(=O)CSc2nnc(-c3ccco3)n2CC)c(C(=O)OCC)c1C,–,"0.13 µM [rising, full curve, poor fit]","0.651 µM [rising, single point]"
COc1ccc(N2CCN(C(=O)c3cn(CC4CCCCC4)nn3)CC2)cc1,6.8%,"6.51 µM [rising, single point]",–
COc1cccc(C(=O)N2CCN(C(=O)C3CCCO3)CC2)c1 (centres undefined),-27.4%,"16.4 µM [rising, single point]",–
O=C(COC(=O)CCN=C1NS(=O)(=O)c2ccccc21)NNC(=O)c1ccc(Cl)cc1,-4.4%,"14.6 µM [rising, partial curve, poor fit]",–
O=C(CCN1CCN(S(=O)(=O)c2ccc(Cl)cc2)CC1)Nc1ccc(F)cc1,3.83%,–,–
CCOc1cc(/C=N/n2cnnc2)ccc1OS(=O)(=O)c1ccc(C)cc1,-18.2%,"29.1 µM [falling, single point]",–
CCN1C(=NCc2ccc(OC)cc2)N[C@@H](CCc2ccccc2)[C@H](C(=O)NCc2ccc(OC)cc2)[C@H]1C,-0.689%,"0.731 µM [falling, full curve]",–

SMILES,cell number change,AC50 [1],AC50 [2]
COc1ccc(CC(=O)NCCc2ccc(OC)c(OC)c2)cc1,-29.4%,"0.58 µM [falling, full curve]",–
CCc1ccc(N2CC(C(=O)OCC(=O)NNC(=O)c3ccccc3)CC2=O)cc1 (centres undefined),-18.5%,"23.1 µM [falling, partial curve, poor fit]","0.116 µM [falling, full curve, poor fit]"
COc1ccc(C)cc1NC(=O)C(C)N(c1ccc(C)cc1)S(C)(=O)=O (centres undefined),-15.9%,"14.6 µM [falling, single point]",–
Cc1cccc(NC(=O)CSc2nnc(C3CC3)n2CC2CCCO2)c1C (centres undefined),15%,–,–
CCCCN1C[C@H](Cc2ccccc2)[C@@H](CC(=O)Nc2ccccc2)C1=O,-4.53%,"29.1 µM [falling, single point]",–
Cc1cc2[nH]c(=O)c(=O)[nH]c2cc1S(=O)(=O)N1CCN(c2ccccc2)CC1,1.15%,"2.31 µM [rising, full curve, poor fit]",–
COc1ccccc1CCNC(=O)C(=O)NCC1OCCCN1S(=O)(=O)c1ccc(F)cc1C (centres undefined),11.1%,"6.51 µM [rising, partial curve, poor fit]",–
COc1ccc(C2C3C=CCC(c4cccc(-c5ccc(C)cc5)c4)C3C(=O)N2Cc2ccccc2)cc1Cl (centres undefined),–,"6.51 µM [falling, single point]",–
Cn1c(SCc2ccc(Cl)cc2Cl)nc(C(F)(F)F)cc1=O,-28.3%,–,"0.0731 µM [falling, full curve, poor fit]"
CCCCNS(=O)(=O)c1ccc(OC)c(Cl)c1Cl,-6.97%,–,–
COc1ccc(C2/C=C\CN(C(=O)Nc3ccccc3-c3ccccc3)CC(=O)N2Cc2ccc(F)cc2)cc1 (centres undefined),22%,"3.66 µM [rising, full curve, poor fit]",–
COc1cc(CNCCCCO)ccc1OCc1ccccc1F,-15.7%,–,–
Cc1cc(C)c(C)c(S(=O)(=O)N2CCN(c3ncnc4ccccc34)CC2)c1C,-26.3%,"0.366 µM [falling, full curve]",–
CCN(CC)CCn1c(=N)n(CC(O)c2ccc(OC)c(OC)c2)c2ccccc21 (centres undefined),0.298%,"1.3 µM [falling, partial curve]","0.92 µM [falling, full curve]"
Cc1ccc(S(=O)(=O)c2c(CO)c(-c3ccccc3)nn2C)cc1,18.2%,"6.51 µM [falling, single point]",–
CC(C)N(CCn1c(SCC(=O)Nc2cccnc2Cl)nc2ccccc2c1=O)C(C)C,-2.89%,"2.91 µM [rising, partial curve]",–
Cc1ccc(C2(C)NC(=O)N(CC(=O)Nc3cc(S(=O)(=O)N4CCCCC4)ccc3OC(C)C)C2=O)cc1 (centres undefined),-3.35%,–,–
Nc1c(C(=O)Nc2ccc3c(c2)OCCO3)nnn1Cc1cccc(Cl)c1,-75%,–,–
CCC(=O)Nc1ccc(C(=O)OCc2ccccc2Cl)cc1,80.2%,–,"29.1 µM [rising, single point]"

# Ordered by count of non-hydrogen atoms (ascending): part of the list above
SMILES,cell number change,AC50 [1],AC50 [2]
COc1cccc(C(=O)N2CCN(C(=O)C3CCCO3)CC2)c1 (centres undefined),-27.4%,"16.4 µM [rising, single point]",–
Cc1ccc(S(=O)(=O)c2c(CO)c(-c3ccccc3)nn2C)cc1,18.2%,"6.51 µM [falling, single point]",–
CCCCN1C[C@H](Cc2ccccc2)[C@@H](CC(=O)Nc2ccccc2)C1=O,-4.53%,"29.1 µM [falling, single point]",–
CC(C)N(CCn1c(SCC(=O)Nc2cccnc2Cl)nc2ccccc2c1=O)C(C)C,-2.89%,"2.91 µM [rising, partial curve]",–

# Next part

SMILES,cell number change,AC50 [1],AC50 [2]
O=C(Nc1ccc(CN2CCCCC2)cc1)c1c(F)c(F)c(F)c(F)c1F,-5.54%,–,"4.61 µM [falling, partial curve]"
CC(=O)C1=C(NC(=O)c2ccccc2F)C[C@@H]2[C@H]1C2(C)C,4.58%,"13 µM [rising, partial curve]",–
CCOc1cc(N2CCOCC2)c(OCC)cc1NC(=O)Cc1cn2ccsc2n1,2.29%,"5.17 µM [rising, full curve, poor fit]",–
Cc1ccc(NC(=O)COC(=O)c2cccc(OC(F)F)c2)cc1S(=O)(=O)N1CCCCC1,-14.6%,"23.1 µM [falling, partial curve]","0.00461 µM [rising, full curve, poor fit]"
CCC1(C)Cc2nc(Cl)c(C#N)cc2CO1 (centres undefined),-4.89%,"0.731 µM [falling, full curve]","0.58 µM [falling, full curve]"
COc1ccc(F)cc1S(=O)(=O)NC(Cc1ccccc1)C(N)=O (centres undefined),-2.3%,–,–
CCN1C(=O)/C(=C\N2CCCCCC2)SC1=S,-5.47%,–,–
COc1ccc(S(=O)(=O)CCc2nnc(NC(C)=O)s2)cc1,-32.2%,–,"2.31 µM [falling, full curve]"
CSc1n[nH]c(NC(=O)c2c(-c3c(Cl)cccc3Cl)noc2C)n1,-4.13%,"0.00461 µM [falling, full curve, poor fit]",–
COc1ccc(-c2csc(NC(=O)CN3C(=O)C4CC=CCC4C3=O)n2)cc1 (centres undefined),-24.2%,"32.6 µM [falling, single point]",–
O=C(CCSc1ccccc1)Nc1nc2c(s1)COc1ccccc1-2,35.9%,–,"14.6 µM [rising, single point]"
CN(Cc1ccccc1)C(=O)CCS(=O)(=O)c1cc2c(cc1Cl)NC(=O)CO2,1.73%,"0.116 µM [rising, full curve, poor fit]",–
O=C(Nc1ccncc1)Nc1cccc(Cl)c1Cl,-13.9%,"29.1 µM [rising, single point]",–
COc1ccc(NC2CCCN(C(=O)c3ccc(OC)o3)C2)cc1 (centres undefined),18.8%,–,"4.61 µM [rising, partial curve, poor fit]"
COc1cc(C(=O)OCn2nnc3ccccc3c2=O)cc(OC)c1OC,56.1%,–,"2.31 µM [rising, partial curve]"
CCn1c2ccccc2c2cc(NC(=O)c3ccco3)ccc21,-8.52%,"0.461 µM [rising, partial curve]",–
COc1ccccc1C(=O)NC(=S)NNC(=O)c1sc2ccccc2c1Cl,31.6%,"3.66 µM [rising, single point]","3.66 µM [rising, full curve, poor fit]"
Cc1oc2ccc(NS(=O)(=O)c3ccccc3)cc2c1C(=O)Nc1ccccc1,16.5%,"1.3 µM [rising, partial curve, poor fit]",–
OC(COc1ccccc1)CSc1ncn[nH]1 (centres undefined),2.5%,"0.461 µM [falling, full curve, poor fit]",–

# Reference: PubChem BioAssay AID2685 (National Center for Advancing Translational Sciences (NCATS), 2010)
